Test results from the supplement of paper PMC10470496.
Structures can show the parent of a compound that is named as a salt. This is one part of the list. Many values rest on one well or one pass, so single values are uncertain.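 The three strains are clinical Candida auris isolates from the CDC resistance isolate bank, from clades III, IV and I, grown in RPMI-1640 at 35°C. Growth is background-corrected OD600 relative to vehicle-only wells on the same plate; a hit meant over 50% inhibition in at least two strains plus a plate-corrected B-score above 0.1.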

Experiments:
Assay in all cases: growth relative to vehicle control (OD600 ratio) (fraction); higher = less inhibition
Conditions in all cases: 24 h
C. auris AR-384 = test system: C. auris AR-384
C. auris AR-386 = test system: C. auris AR-386
C. auris AR-387 = test system: C. auris AR-387

| SMILES | growth (C. auris AR-384; 1 µM) | growth (C. auris AR-384; 10 µM) | growth (C. auris AR-386; 1 µM) | growth (C. auris AR-386; 10 µM) | growth (C. auris AR-387; 1 µM) | growth (C. auris AR-387; 10 µM) |
| --- | --- | --- | --- | --- | --- | --- |
| CCN(Cc1ccncc1)C(=O)C(CO)c1ccccc1 (configuration not stated) [Tropicamide] | 0.91 | 1.18 | 1.19 | 1.08 | 1.03 | 1.05 |
| C[C@H](Nc1ncnc2nc[nH]c12)c1cc2cccc(Cl)c2c(=O)n1-c1ccccc1 [Duvelisib (IPI-145, INK1197)] | 0.71 | 0.75 | 0.86 | 0.55 | 0.55 | 0.52 |
| CC#CCn1c(N2CCC[C@@H](N)C2)nc2c1c(=O)n(Cc1nc(C)c3ccccc3n1)c(=O)n2C [Linagliptin] | 1.01 | 0.84 | 0.65 | 1.3 | 0.95 | 0.97 |
| S=P(N1CC1)(N1CC1)N1CC1 [Thiotepa] | 0.7 | 0.85 | 0.87 | 0.8 | 0.75 | 0.7 |
| OCCOCCN1CCN(C(c2ccccc2)c2ccc(Cl)cc2)CC1 (configuration not stated) [Hydroxyzine 2HCl] | 0.94 | 0.79 | 0.77 | 0.85 | 0.72 | 1 |
| CC(=O)[C@H]1CC[C@H]2[C@@H]3CCC4=CC(=O)CC[C@]4(C)[C@H]3CC[C@]12C [Progesterone] | 0.93 | 0.61 | 0.96 | 1.15 | 0.98 | 0.79 |
| Clc1ccc(Nc2nnc(Cc3ccncc3)c3ccccc23)cc1 [Vatalanib (PTK787) 2HCl] | 0.91 | 1.31 | 1.37 | 1.15 | 1.03 | 1.29 |
| CCc1oc2ccccc2c1C(=O)c1cc(Br)c(O)c(Br)c1 [Benzbromarone] | 0.94 | 0.8 | 1.09 | 0.8 | 0.74 | 0.54 |
| CS(=O)(=O)c1ccc(C2=C(c3ccccc3)C(=O)OC2)cc1 [Rofecoxib] | 1.06 | 0.89 | 1.13 | 1.43 | 1.27 | 1.19 |
| CC(C)c1nc(CN(C)C(=O)N[C@H](C(=O)N[C@@H](Cc2ccccc2)C[C@H](O)[C@H](Cc2ccccc2)NC(=O)OCc2cncs2)C(C)C)cs1 [Ritonavir] | 1.14 | 1.4 | 1.28 | 0.6 | 0.7 | 0.57 |
| CCCCN1CCCCC1C(=O)Nc1c(C)cccc1C (configuration not stated) [Bupivacaine HCl] | 0.87 | 0.89 | 1.14 | 0.91 | 0.79 | 1.02 |
| Cc1cc(C#N)cc(C)c1Oc1nc(Nc2ccc(C#N)cc2)nc(N)c1Br [Etravirine (TMC125)] | 1.1 | 0.96 | 0.81 | 0.96 | 0.74 | 0.82 |
| CC1(C)O[C@@H]2[C@@H](CO[C@@]3(COS(N)(=O)=O)OC(C)(C)O[C@@H]23)O1 [Topiramate] | 0.91 | 0.52 | 0.57 | 0.81 | 0.82 | 0.87 |
| Cc1ncc([N+](=O)[O-])n1CCO [Metronidazole] | 1.27 | 0.98 | 1 | 1.02 | 0.82 | 0.71 |
| O=S(=O)(O)c1cc(O)ccc1O [Ethamsylate] | 0.93 | 1.14 | 1.02 | 0.88 | 1.17 | 1.12 |
| O=C(O)Cc1ccccc1Nc1c(Cl)cccc1Cl [Diclofenac Potassium] | 0.97 | 0.77 | 0.99 | 0.69 | 0.68 | 0.6 |
| OCC(CO)N[C@H]1C[C@](O)(CO)[C@@H](O)[C@H](O)[C@H]1O [Voglibose] | 0.92 | 1.05 | 1.03 | 1.1 | 1.16 | 1.13 |
| C=CC1=C(C(=O)O)N2C(=O)[C@@H](NC(=O)/C(=N\OCC(=O)O)c3csc(N)n3)[C@H]2SC1 [Cefixime] | 1.15 | 1.41 | 1.28 | 1 | 0.91 | 0.97 |
| CC(C)c1cc(-c2n[nH]c(=O)n2-c2ccc3c(ccn3C)c2)c(O)cc1O [Ganetespib (STA-9090)] | 1.01 | 1.18 | 1.24 | 1.45 | 1.09 | 1.28 |
| COc1cc(/C=C/C(=O)N2CCN(CC(=O)N3CCCC3)CC2)cc(OC)c1OC [Cinepazide maleate] | 0.92 | 1.02 | 0.91 | 1.06 | 1.15 | 1.35 |
| CN[C@@H]1[C@H](O[C@H]2[C@H](O[C@H]3[C@H](O)[C@@H](O)[C@H](N=C(N)N)[C@@H](O)[C@@H]3N=C(N)N)O[C@@H](C)[C@]2(O)C=O)O[C@@H](CO)[C@H](O)[C@H]1O [Streptomycin sulfate] | 0.82 | 0.88 | 0.97 | 0.82 | 1.03 | 0.89 |
| O=C1NC(=O)[C@@H](c2cn3c4c(cccc24)CCC3)[C@@H]1c1c[nH]c2ccccc12 [Tivantinib (ARQ 197)] | 0.68 | 1.33 | 0.76 | 0.85 | 0.75 | 0.78 |

Some of the entries so far, in CSV form.
SMILES,growth (C. auris AR-384; 1 µM),growth (C. auris AR-384; 10 µM),growth (C. auris AR-386; 1 µM),growth (C. auris AR-386; 10 µM),growth (C. auris AR-387; 1 µM),growth (C. auris AR-387; 10 µM)
CC(C)c1cc(-c2n[nH]c(=O)n2-c2ccc3c(ccn3C)c2)c(O)cc1O [Ganetespib (STA-9090)],1.01,1.18,1.24,1.45,1.09,1.28
O=C1NC(=O)[C@@H](c2cn3c4c(cccc24)CCC3)[C@@H]1c1c[nH]c2ccccc12 [Tivantinib (ARQ 197)],0.68,1.33,0.76,0.85,0.75,0.78
